Source: PubChem BioAssay AID493014 (National Center for Advancing Translational Sciences (NCATS), 2011)
Screen size: about 340,000 compounds; about 170 (0.05%) were called active. Inconclusive results, whose numbers are uncertain, are shown with a selection of clear calls. Calls follow the shape of the dose curve; as a rule, active = well fitted inhibition curve with a large enough effect in the signal ratio, with a control signal flat (not every such curve was filed as active); inconclusive = small, poorly fitted or top-dose-only effect, or effect the other way, or a change in a side signal; inactive = flat fitted curve, though single readings scatter; the % refers to the signal ratio. Potencies of inconclusive entries are doubtful fits and often do not repeat.

Assay: qHTS Assay to Find Inhibitors of Chronic Active B-Cell Receptor Signaling;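 as to activity change, negative = inhibition: plate controls were basal doxycycline-induced cells for no effect and cells given 10 µM MG132 for full effect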
Conditions: ABC-DLBCL IkBa-CBG/CBR reporter, luminescence ratio (green luciferase fused to IkBa over red control in TMD8 lymphoma cells), 4 h; activity change, negative = inhibition: at 46.1 µM (top of the series)
Method in brief: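 Concentration-response series (up to 46 uM) were applied to TMD8 dual-reporter cells for 4 h at 37C with doxycycline. Green/red ratio, after filter-overlap correction, defined %Activity; red signal alone was normalised to basal cells and zero luminescence.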
Potency is read from the fitted curve at half-maximal effect.

**Q.** For `Cc1ccc(-n2c(C)cc(C(=O)COC(=O)c3ccc[nH]c3=O)c2C)cc1C`, which activity change, negative = inhibition is on record?
**A.** inactive

**Q.** With `N/C(=N/OCc1cccc([N+](=O)[O-])c1)c1nonc1N` as the compound, how does the activity change, negative = inhibition read?
**A.** inconclusive: 3.55%

**Q.** For `N=C1CCCN1CC(=O)c1ccc(Br)cc1`, which activity change, negative = inhibition is on record?
**A.** inconclusive: 5.28%

**Q.** With `COc1ccc(CN(Cc2ccccn2)S(=O)(=O)c2ccc(-n3cnnn3)cc2)cc1` as the compound, how does the activity change, negative = inhibition read?
**A.** inconclusive: 12.2%

**Q.** Which activity change, negative = inhibition does the source give for `O=C(COC(=O)CNC(=O)c1ccccc1Cl)NC1CCCC1` here?
**A.** inconclusive: 12.7%

**Q.** Which activity change, negative = inhibition does the source give for `O=C(Nc1ccc(F)cc1F)C1CCCN(c2ncnc3c2nc2n3CCCCC2)C1` (stereo unspecified) here?
**A.** inactive

**Q.** For `CCN(CC)C(=S)SSC(=S)N(CC)CC`, which activity change, negative = inhibition is on record?
**A.** inconclusive: -35.7%

**Q.** Which activity change, negative = inhibition does the source give for `CC(=O)C1C(=O)CC(c2ccc(Cl)cc2)CC1=O` (stereo unspecified) here?
**A.** inconclusive: 11.8%

**Q.** Which activity change, negative = inhibition does the source give for `CCN(CC)c1ncnc2c1sc1nc(C)cc(C)c12` here?
**A.** inconclusive: -9.64%

**Q.** For `CCOC(=O)CCCCC(=O)c1[nH]c(=O)[nH]c1C[n+]1ccc(C)cc1`, which activity change, negative = inhibition is on record?
**A.** inactive

**Q.** Which activity change, negative = inhibition does the source give for `CCOCCOC(=O)C(C)Sc1n[nH]c(=O)[nH]c1=O` (stereo unspecified) here?
**A.** inconclusive: 8.34%

**Q.** Which activity change, negative = inhibition does the source give for `Clc1ccc(CCNc2ncnc3c2c(-c2ccccc2)cn3-c2ccccc2)cc1` here?
**A.** inconclusive: 15.3%

**Q.** With `Cc1ccc(Nc2ncccc2C(N)=O)cc1[N+](=O)[O-]` as the compound, how does the activity change, negative = inhibition read?
**A.** inconclusive: -0.53%

**Q.** Which activity change, negative = inhibition does the source give for `Oc1cc(-n2cccn2)c(O)cc1-n1cccn1` here?
**A.** inconclusive: 9.83%

**Q.** With `Cc1cc(C)n(-c2ccc(C(=O)Nc3cccc([N+](=O)[O-])c3)cc2)n1` as the compound, how does the activity change, negative = inhibition read?
**A.** inactive

**Q.** With `CCN1CCN(CC2CC3C=CC2C3)CC1` (stereo unspecified) as the compound, how does the activity change, negative = inhibition read?
**A.** inconclusive: -8.12%

**Q.** For `O=C(Nc1ccccc1N1CCCC1)c1cc2ccccc2o1`, which Potency is on record?
**A.** inconclusive: 4.61 µM [falling, full curve]

**Q.** Which activity change, negative = inhibition does the source give for `Cc1ccc(Cn2c(=O)c3cccnc3n(CC(=O)Nc3cccc(C(F)(F)F)c3)c2=O)cc1` here?
**A.** inactive

**Q.** For `Cc1cc(C(=O)CCC(=O)NNC(=O)c2ccccc2O)c(C)s1`, which Potency is on record?
**A.** inconclusive: 3.66 µM [falling, single point]

**Q.** For `CCN(c1cccc(C)c1)S(=O)(=O)c1ccc2c3c(cccc13)C(=O)N2`, which Potency is on record?
**A.** inconclusive: 14.6 µM [falling, partial curve, poor fit]

**Q.** Which activity change, negative = inhibition does the source give for `COCCn1nnnc1C(C(C)C)N(Cc1cccnc1)Cc1ccccc1Cl` (stereo unspecified) here?
**A.** inconclusive: 2.83%

**Q.** For `Cc1ccc(-n2ncc3c(N4CCCCCC4)ncnc32)cc1`, which Potency is on record?
**A.** inconclusive: 1 µM [rising, full curve, poor fit]

**Q.** Which activity change, negative = inhibition does the source give for `CCn1ncc(CN2CCCC(C(=O)c3cccc(OC(C)C)c3)C2)c1C` (stereo unspecified) here?
**A.** inactive

**Q.** For `COC(=O)c1ccc(/C=C/C(=O)O)cc1`, which activity change, negative = inhibition is on record?
**A.** inactive

**Q.** For `CC(C)C(NC(=O)C1CCCCC1)C(=O)Nc1ccc2c(c1)OCCO2` (stereo unspecified), which activity change, negative = inhibition is on record?
**A.** inconclusive: 0.726%

**Q.** For `O=C(Nc1ccccc1N1CCCCC1)c1ccc(OC(F)F)cc1`, which activity change, negative = inhibition is on record?
**A.** inconclusive: 7.08%

**Q.** For `CCOc1nc(C)cc(C)c1S(=O)(=O)c1ccc(Cl)cc1`, which activity change, negative = inhibition is on record?
**A.** inconclusive: -0.0211%

**Q.** With `CCn1c(=O)c2cc(C(=O)Nc3ccccc3OC)sc2c2ccccc21` as the compound, how does the Potency read?
**A.** inconclusive: 0.398 µM [falling, full curve, poor fit]

**Q.** Which activity change, negative = inhibition does the source give for `Cc1cc(=O)oc(C)c1C(=O)NCCCN1CCN(c2ccccc2F)CC1` here?
**A.** inactive

**Q.** Which Potency does the source give for `Cc1ccc(/C=N/NC(=O)C(O)c2ccccc2)o1` (stereo unspecified) here?
**A.** inconclusive: 17.8 µM [falling, partial curve]

**Q.** With `Cc1noc(NS(=O)(=O)c2ccc(N/C=C/C(=O)c3cccnc3)cc2)c1C` as the compound, how does the activity change, negative = inhibition read?
**A.** inconclusive: 16.8%

**Q.** For `COc1cccc(/C=N/Nc2cc(C)nc(-c3ccccc3O)n2)c1O`, which activity change, negative = inhibition is on record?
**A.** inconclusive: -1.89%

**Q.** For `COc1ccccc1N1CCN(C(=O)c2oc3cc(C)c(C)cc3c2C)CC1`, which activity change, negative = inhibition is on record?
**A.** inconclusive: 27.8%

**Q.** With `Cn1nc(-c2ccccc2)cc1NC(=O)c1ccc(Cl)cc1` as the compound, how does the activity change, negative = inhibition read?
**A.** inconclusive: 24.2%

**Q.** With `COc1ccc(-c2noc(N3CCC(C(=O)NC(C)c4ccccc4)CC3)n2)cc1` (stereo unspecified) as the compound, how does the activity change, negative = inhibition read?
**A.** inactive

**Q.** Which Potency does the source give for `COn1c(=O)c(-c2cccs2)[n+]([O-])c2ccccc21` here?
**A.** inconclusive: 1.58 µM [rising, full curve]

**Q.** Which Potency does the source give for `COc1cc(NC(=O)CCn2c(-c3ccccc3)cc(C(C)=O)c2C)cc(OC)c1` here?
**A.** inconclusive: 35.5 µM [falling, single point]

**Q.** With `CCc1cc2c(NCC(=O)O)ncnc2s1` as the compound, how does the activity change, negative = inhibition read?
**A.** inconclusive: 12.8%

**Q.** Which Potency does the source give for `Cc1cc(C)cc(C(=O)OCC(=O)NCCNC(=O)COC(=O)c2cc(C)cc(C)c2)c1` here?
**A.** inconclusive: 35.5 µM [falling, single point]

**Q.** With `COc1ccc(OC)c(CN2CCN(C(=O)c3cccc(S(=O)(=O)Nc4ccccc4OC)c3)CC2)c1` as the compound, how does the Potency read?
**A.** inconclusive: 14.6 µM [falling, partial curve, poor fit]

**Q.** For `Cc1ccc(-n2ncc3c(NCCCOC(C)C)ncnc32)c(C)c1`, which activity change, negative = inhibition is on record?
**A.** inconclusive: 3.27%
